From the supplement of paper PMC5393889 come the findings set out here.

This is one part of the list.

In the assay the test system is Caenorhabditis elegans N2. The experiment in a line: aldicarb interaction hit call (worm growth perturbed in combination with 10 uM aldicarb in both replicates, no effect as single agent) (binary (1 = interacts)); higher = interacts with aldicarb (growth perturbed). The note with it: first compound 1.5 µM; aldicarb concentration 10 µM; 6 days; 20 °C. The method, then:
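C. elegans liquid growth assay in 96-well plates: about 40 synchronized L1 worms in NGM with HB101 E. coli, 6 days at 20 C, 0.6% DMSO. Each wactive compound was tested at 1.5 uM plus 10 uM aldicarb, and alone in DMSO controls. Viable worms were scored under a dissection microscope in two replicates. A hit is a compound that perturbed growth with aldicarb in both replicates but had no obvious effect as a single agent. Only compounds that overgrew as single agents are kept.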
Turning to `c1coc(-c2nc(-c3cccs3)cs2)c1` [wact-203] + CNC(=O)O/N=C/C(C)(C)SC [aldicarb], the “aldicarb interaction hit call” value was inactive: 0.

`Cc1cc(C(=O)Nc2ccc(N3CCOCC3)c(Cl)c2)ccc1[N+](=O)[O-]` [wact-480] + CNC(=O)O/N=C/C(C)(C)SC [aldicarb]: the “aldicarb interaction hit call” value was inactive: 0.

`Fc1cc(Cl)c(-c2nc(-c3ccncc3)no2)cc1F` [wact-156] + CNC(=O)O/N=C/C(C)(C)SC [aldicarb]: the “aldicarb interaction hit call” value was active: 1.

With `Cc1oc(-c2cccc(Cl)c2)nc1CN1CCC(c2ccncc2)CC1` [wact-276] + CNC(=O)O/N=C/C(C)(C)SC [aldicarb], the “aldicarb interaction hit call” value was inactive: 0.

In the case of `C#CCOc1ccc(/C=C2\C(=O)N(c3ccc(Cl)cc3)N=C2C(F)(F)F)cc1OCC` [wact-208] + CNC(=O)O/N=C/C(C)(C)SC [aldicarb], the “aldicarb interaction hit call” value was inactive: 0.

Regarding `c1ccc(SCc2nc(-c3ccccn3)no2)cc1` [wact-84] + CNC(=O)O/N=C/C(C)(C)SC [aldicarb], the “aldicarb interaction hit call” value was inactive: 0.

Turning to `COc1cc(/C=N/c2ccc(-c3nc4ccc(C)cc4s3)cc2)ccc1OC(C)=O` [wact-383] + CNC(=O)O/N=C/C(C)(C)SC [aldicarb], the “aldicarb interaction hit call” value is inactive: 0.

Turning to `O=C(Cc1cccc(F)c1)Nc1ccc(Cl)cc1` [wact-141] + CNC(=O)O/N=C/C(C)(C)SC [aldicarb], the “aldicarb interaction hit call” value is inactive: 0.

As for `C#CCSc1ncnc2c1cnn2-c1ccccc1` [wact-352] + CNC(=O)O/N=C/C(C)(C)SC [aldicarb], the “aldicarb interaction hit call” value was inactive: 0.

Take `O=[N+]([O-])c1ccc(-n2ccc3ccccc32)cc1` [wact-213] + CNC(=O)O/N=C/C(C)(C)SC [aldicarb]: the “aldicarb interaction hit call” value is inactive: 0.

Regarding `Fc1cccc(-c2nc(-c3cccnc3)no2)c1` [wact-579] + CNC(=O)O/N=C/C(C)(C)SC [aldicarb], the “aldicarb interaction hit call” value was inactive: 0.

Consider `CS(=O)(=O)c1ncc(CN2CCCC2c2ccc(F)cc2)n1CCCc1ccccc1` (stereo not given) [wact-233] + CNC(=O)O/N=C/C(C)(C)SC [aldicarb], for which the “aldicarb interaction hit call” value is inactive: 0.

Take `COc1ccc(-c2noc(CCCOc3ccccc3)n2)cc1` [wact-604] + CNC(=O)O/N=C/C(C)(C)SC [aldicarb]: the “aldicarb interaction hit call” value was inactive: 0.

`O=C(NCCCNc1ccc(C(F)(F)F)cc1[N+](=O)[O-])c1ccc(F)cc1` [wact-117] + CNC(=O)O/N=C/C(C)(C)SC [aldicarb]: the “aldicarb interaction hit call” value was inactive: 0.

For `N/C(=N\OC(=O)Cc1cccs1)c1ccccc1` [wact-493] + CNC(=O)O/N=C/C(C)(C)SC [aldicarb], the “aldicarb interaction hit call” value is inactive: 0.

Consider `Cc1ccccc1-c1nc(-c2ccccc2)no1` [wact-131] + CNC(=O)O/N=C/C(C)(C)SC [aldicarb], for which the “aldicarb interaction hit call” value is inactive: 0.

In the case of `CC(C)(C)c1ccc(-c2noc(-c3cccnc3)n2)cc1` [wact-133] + CNC(=O)O/N=C/C(C)(C)SC [aldicarb], the “aldicarb interaction hit call” value is inactive: 0.

On to `C#CCSc1nnc(-c2ccc(C)cc2)o1` [wact-342] + CNC(=O)O/N=C/C(C)(C)SC [aldicarb], for which the “aldicarb interaction hit call” value was inactive: 0.

For the compound `Ic1ccc(OCCCCCN2CCOCC2)cc1` [wact-41] + CNC(=O)O/N=C/C(C)(C)SC [aldicarb], the “aldicarb interaction hit call” value was inactive: 0.

As to `O=C(NC(=S)Nc1ccc(F)cc1)C1CC1` [wact-524] + CNC(=O)O/N=C/C(C)(C)SC [aldicarb], the “aldicarb interaction hit call” value was inactive: 0.

Take `CC1(C)Cc2c(cnn2-c2cccc(F)c2)C(NCc2c[nH]nc2-c2ccccc2)C1` (stereo not given) [wact-309] + CNC(=O)O/N=C/C(C)(C)SC [aldicarb]: the “aldicarb interaction hit call” value is inactive: 0.

On to `O=C(NCCc1ccc(F)cc1)Nc1ccc([N+](=O)[O-])cc1` [wact-82] + CNC(=O)O/N=C/C(C)(C)SC [aldicarb], for which the “aldicarb interaction hit call” value was inactive: 0.

`S=C(NCC1CCCO1)N1CCN(c2ccc(Cl)c(Cl)c2)CC1` (stereo not given) [wact-111] + CNC(=O)O/N=C/C(C)(C)SC [aldicarb]: the “aldicarb interaction hit call” value was inactive: 0.

For `O=[N+]([O-])c1ccc(N2CCN(CC3CC=CCC3)CC2)cc1` (stereo not given) [wact-47] + CNC(=O)O/N=C/C(C)(C)SC [aldicarb], the “aldicarb interaction hit call” value was inactive: 0.

Consider `CN(Cc1cccn1-c1ncccn1)CC1CCN(CCc2ccc(Cl)cc2)CC1` [wact-329] + CNC(=O)O/N=C/C(C)(C)SC [aldicarb], for which the “aldicarb interaction hit call” value was inactive: 0.

For the compound `CC1=C(C(=O)OC(C)C)C(c2ccc(Cl)cc2)NC(S)=N1` (stereo not given) [wact-495] + CNC(=O)O/N=C/C(C)(C)SC [aldicarb], the “aldicarb interaction hit call” value is inactive: 0.

Turning to `Cl.Clc1ccc(-c2ccc(CNC3CC3)o2)cc1` [wact-194] + CNC(=O)O/N=C/C(C)(C)SC [aldicarb], the “aldicarb interaction hit call” value is inactive: 0.

Regarding `c1ccc2[nH]c(-c3cncs3)nc2c1` [wact-608] + CNC(=O)O/N=C/C(C)(C)SC [aldicarb], the “aldicarb interaction hit call” value was inactive: 0.

Take `O=C(Nc1ccc(N2CCOCC2)c(Cl)c1)c1ccc(-c2ccc(F)cc2)o1` [wact-61] + CNC(=O)O/N=C/C(C)(C)SC [aldicarb]: the “aldicarb interaction hit call” value was active: 1.

As for `C(#Cc1ccc(/C=N/c2nccs2)cc1)c1ccccc1` [wact-376] + CNC(=O)O/N=C/C(C)(C)SC [aldicarb], the “aldicarb interaction hit call” value was inactive: 0.

With `Cl.Clc1ccc(COc2ccc(CNC3CC3)cc2)cc1` [wact-204] + CNC(=O)O/N=C/C(C)(C)SC [aldicarb], the “aldicarb interaction hit call” value is inactive: 0.

In the case of `O=C(Nc1cccc(-c2cccc(F)c2)c1)C1CCN(CC2CC2)CC1` [wact-264] + CNC(=O)O/N=C/C(C)(C)SC [aldicarb], the “aldicarb interaction hit call” value is inactive: 0.

Consider `CC(C)(C)c1ccc(OCCNC(=O)c2ccccc2[N+](=O)[O-])cc1` [wact-427] + CNC(=O)O/N=C/C(C)(C)SC [aldicarb], for which the “aldicarb interaction hit call” value was inactive: 0.

Consider `CC(C)C(=O)N1CCN(c2ccc(NC(=O)c3ccc(Br)o3)cc2Cl)CC1` [wact-539] + CNC(=O)O/N=C/C(C)(C)SC [aldicarb], for which the “aldicarb interaction hit call” value is inactive: 0.

For the compound `Fc1ccc(-c2noc(-c3ccco3)n2)cc1` [wact-165] + CNC(=O)O/N=C/C(C)(C)SC [aldicarb], the “aldicarb interaction hit call” value is inactive: 0.

As to `CC(NC(=O)c1nc(-c2cccs2)no1)c1ccccc1` (stereo not given) [wact-615] + CNC(=O)O/N=C/C(C)(C)SC [aldicarb], the “aldicarb interaction hit call” value was inactive: 0.

As to `O=C(c1ccc(Cl)cc1)N1CCN(Cc2ccc(Cl)cc2)CC1` [wact-229] + CNC(=O)O/N=C/C(C)(C)SC [aldicarb], the “aldicarb interaction hit call” value was inactive: 0.

Consider `Cc1cc(N2CCN(C(=O)c3ccccc3)CC2)c(F)cc1[N+](=O)[O-]` [wact-439] + CNC(=O)O/N=C/C(C)(C)SC [aldicarb], for which the “aldicarb interaction hit call” value is inactive: 0.

For the compound `O=C(Nc1ccc(Cl)cc1)N1CCCC(N2CCN(c3ccccc3)CC2)C1` (stereo not given) [wact-327] + CNC(=O)O/N=C/C(C)(C)SC [aldicarb], the “aldicarb interaction hit call” value is inactive: 0.

Consider `Cc1cc([N+](=O)[O-])ccc1NCc1ccccc1` [wact-594] + CNC(=O)O/N=C/C(C)(C)SC [aldicarb], for which the “aldicarb interaction hit call” value is inactive: 0.
